Assay results reported in PMC5716531.
These are yes or no findings as the source states them, for the method shown. Some binding calls cover weakened binding; strength is not graded here. Tags and fused reporters may be left off the sequences shown.

The chains behind the UniProt entries cited, without tags or fusion partners. Where a name states a change or a piece, a line headed by the entry shows the natural chain unless it says otherwise.
UniProt P07305: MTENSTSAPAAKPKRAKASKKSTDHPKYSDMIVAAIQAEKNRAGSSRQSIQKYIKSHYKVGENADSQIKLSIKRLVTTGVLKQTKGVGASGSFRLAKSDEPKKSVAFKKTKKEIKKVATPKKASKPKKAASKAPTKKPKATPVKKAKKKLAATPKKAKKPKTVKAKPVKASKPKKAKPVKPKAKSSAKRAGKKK

Each substance was assayed against T1, S. pombe Nap1 histone chaperone (nucleosome assembly protein 1) (S. pombe) (UniProt O59797) (assay: native gel or EMSA; Nap1 (1 ug) mixed with histone, 30 min at room temperature; 15 mM HEPES/NaOH pH 7.5, 150 mM NaCl, 1 mM DTT; 6% native polyacrylamide gel in 1x TBE at 4 C, SimplyBlue SafeStain; both purified).
T1 sequence: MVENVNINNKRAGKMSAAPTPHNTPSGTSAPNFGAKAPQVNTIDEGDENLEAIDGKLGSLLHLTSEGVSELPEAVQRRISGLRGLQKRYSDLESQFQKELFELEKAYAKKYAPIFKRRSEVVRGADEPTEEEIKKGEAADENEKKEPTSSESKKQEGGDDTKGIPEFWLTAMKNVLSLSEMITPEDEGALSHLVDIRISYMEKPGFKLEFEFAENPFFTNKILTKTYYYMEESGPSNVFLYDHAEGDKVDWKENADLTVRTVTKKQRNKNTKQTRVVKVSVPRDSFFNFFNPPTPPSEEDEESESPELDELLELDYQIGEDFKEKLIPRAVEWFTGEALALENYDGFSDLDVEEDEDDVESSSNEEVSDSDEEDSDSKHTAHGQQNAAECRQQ

| binding | Substance |
| --- | --- |
| binds | H. sapiens H1.0 linker histone N-terminal and globular domains (residues 1-95) (from UniProt P07305 1-95) (domain or fragment) |
| binds | H. sapiens H1.0 linker histone C-terminal domain (residues 96-end) (from UniProt P07305 96-194) (domain or fragment) |
| binds | Homo sapiens H1.0 linker histone, full-length (H1.0-His6 after removal of GST) (from UniProt P07305 1-194) |
